From US6649588
Results are given in words; binding and its absence hold for the method and conditions named. For some assays here: Binding seen in cells or lysates may run through a third protein. Some results given as binding are weak or reduced against the parent protein; the word gives no strength.

By UniProt entry, the sequences of proteins in these tests, tags left out. Residues count along the entry.
UniProt Q62432, residues 2-467: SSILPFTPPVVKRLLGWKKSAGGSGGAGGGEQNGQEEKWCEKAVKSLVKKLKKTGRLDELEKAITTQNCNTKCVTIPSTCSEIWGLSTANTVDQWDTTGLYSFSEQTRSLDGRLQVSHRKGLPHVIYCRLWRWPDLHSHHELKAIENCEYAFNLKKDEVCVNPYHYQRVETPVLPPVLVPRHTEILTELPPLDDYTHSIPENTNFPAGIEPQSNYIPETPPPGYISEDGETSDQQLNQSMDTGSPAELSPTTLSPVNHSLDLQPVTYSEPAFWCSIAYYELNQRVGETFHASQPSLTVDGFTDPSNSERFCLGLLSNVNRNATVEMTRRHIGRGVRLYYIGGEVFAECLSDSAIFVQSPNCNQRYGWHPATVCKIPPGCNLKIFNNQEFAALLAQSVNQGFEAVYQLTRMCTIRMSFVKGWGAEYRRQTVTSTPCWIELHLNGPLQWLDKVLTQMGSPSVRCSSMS
UniProt P97471: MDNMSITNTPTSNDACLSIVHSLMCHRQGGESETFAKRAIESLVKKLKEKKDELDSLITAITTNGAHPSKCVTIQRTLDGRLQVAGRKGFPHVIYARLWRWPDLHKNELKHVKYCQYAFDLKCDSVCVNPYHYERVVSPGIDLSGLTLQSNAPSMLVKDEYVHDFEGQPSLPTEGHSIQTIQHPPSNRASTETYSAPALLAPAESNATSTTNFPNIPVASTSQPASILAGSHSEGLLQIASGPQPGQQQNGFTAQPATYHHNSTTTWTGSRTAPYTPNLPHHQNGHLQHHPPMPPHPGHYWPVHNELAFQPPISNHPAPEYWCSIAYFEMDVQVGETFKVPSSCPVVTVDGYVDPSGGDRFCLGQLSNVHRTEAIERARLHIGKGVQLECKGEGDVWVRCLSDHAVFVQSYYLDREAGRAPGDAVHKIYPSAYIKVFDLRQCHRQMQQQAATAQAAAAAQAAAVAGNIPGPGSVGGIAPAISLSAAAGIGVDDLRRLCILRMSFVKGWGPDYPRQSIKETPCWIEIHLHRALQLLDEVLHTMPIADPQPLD

Experiments:
[1] = target: T1, TGF-β receptor type I (mouse) (UniProt Q64729); assay: IP with anti-Smad2 from lysates of P19 cells whose receptors were cross-linked to radioiodinated TGF-β; SDS-PAGE and autoradiography
T1 sequence (looked up): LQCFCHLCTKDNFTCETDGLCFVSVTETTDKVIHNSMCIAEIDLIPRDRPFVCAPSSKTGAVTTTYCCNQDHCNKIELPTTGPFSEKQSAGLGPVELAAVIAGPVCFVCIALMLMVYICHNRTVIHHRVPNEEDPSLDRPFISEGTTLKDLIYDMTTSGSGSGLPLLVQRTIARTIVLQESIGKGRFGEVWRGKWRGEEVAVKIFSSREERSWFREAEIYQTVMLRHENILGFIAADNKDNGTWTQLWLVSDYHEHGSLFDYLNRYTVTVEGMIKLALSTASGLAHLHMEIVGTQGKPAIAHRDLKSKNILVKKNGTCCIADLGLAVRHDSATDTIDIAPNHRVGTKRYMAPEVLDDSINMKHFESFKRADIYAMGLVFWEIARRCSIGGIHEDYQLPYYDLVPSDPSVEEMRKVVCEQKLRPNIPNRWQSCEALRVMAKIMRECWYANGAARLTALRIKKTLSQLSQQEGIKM

[2] = target: Smad2 (mouse) (UniProt Q62432); assay: Co-immunoprecipitation: Smad2 IP from the nuclear fraction of TGF-β-treated P19 cells, Western blot for Smad4

Row | binding [1] | binding [2] | Substance
1 | binds |  | Smad2 (from UniProt Q62432 2-467)
2 |  | binds | Smad4 (from UniProt P97471 1-551)
